Results on twelve substances are retold here after publication PMC10803810, “Interaction of designed cationic antimicrobial peptides with the outer membrane of gram-negative bacteria” (Scientific Reports, 2024).

For series [1], the system named is LPS micelles. Put plainly: Tryptophan fluorescence blue shift in LPS micelles. On the set-up: species or system Pseudomonas aeruginosa. The settings on record: 10 μM peptide, 0.8 mg/mL LPS, overnight, 10 mM Tris 10 mM NaCl pH 7.4; ex 280 nm, em 300-400 nm; baseline in aqueous solution 350 nm.
Series [2] concerns LPS micelles. The series is described as follows: Acrylamide quenching of Trp fluorescence in LPS micelles (Stern-Volmer). On the set-up: species or system Pseudomonas aeruginosa. The settings on record: 10 μM peptide, 0.8 mg/mL LPS, acrylamide in 0.1 M increments; ex 295 nm, em 310-400 nm (AUC); values closer to 1.0 = greater insertion; average of n = 3.

Take “H-WLKKALKIGAKLLPSVVKLFKGSGQ-NH2 [PonAmp]”: in the series on LPS micelles [1], the “λMF, wavelength of peak Trp fluorescence in the presence of LPS micelles” value (“λMF, wavelength of peak Trp fluorescence” below) is 334 nm. Further, the “m (F0/F), Stern-Volmer slope for acrylamide quenching in the presence of LPS micelles” value (shortened to “m (F0/F), Stern-Volmer slope”) in the series with LPS micelles [2] turned out to be 4.7.

For the substance “H-WAKKAAKIGAKLLPSVVKLFKGSGQ-NH2 [PonAmp 2A]”, the “λMF, wavelength of peak Trp fluorescence” value with LPS micelles [1] is listed as 336 nm. The “m (F0/F), Stern-Volmer slope” value in the series on LPS micelles [2] is recorded as 3.8.

For the substance “H-WAKKAAKIGAKALPSVVKLFKGSGQ-NH2 [PonAmp 3A]”, in the series with LPS micelles [1], the “λMF, wavelength of peak Trp fluorescence” value worked out at 336 nm. For the same substance, the “m (F0/F), Stern-Volmer slope” value in the series on LPS micelles [2] is listed as 4.5.

“H-KKKKKKWAGSAAIGALLPSVVGLFQ-NH2 [PonN 2A]”: the “λMF, wavelength of peak Trp fluorescence” value with LPS micelles [1] is reported as 330 nm. Besides, the “m (F0/F), Stern-Volmer slope” value with LPS micelles [2] was found to be 3.2.

For “H-WAGSAAIGAALPSVVGLFQKKKKKK-NH2 [PonC 3A]”, the “λMF, wavelength of peak Trp fluorescence” value in the series with LPS micelles [1] was 346 nm. For the same substance, in the series with LPS micelles [2], the “m (F0/F), Stern-Volmer slope” value amounted to 5.6.

“H-WAGSAAIGAALPSVVGAFQKKKKKK-NH2 [PonC 4A]”: in the series on LPS micelles [1], the “λMF, wavelength of peak Trp fluorescence” value is 346 nm. In addition, the “m (F0/F), Stern-Volmer slope” value with LPS micelles [2] is 5.8.

Turning to “H-KKKKKKWAGSAAIGAALPSVVGAFQ-NH2 [PonN 4A]”, the “λMF, wavelength of peak Trp fluorescence” value in the series with LPS micelles [1] came to 336 nm. The “m (F0/F), Stern-Volmer slope” value in the series on LPS micelles [2] is 3.7.

On to “H-WAGSAAIGALLPSVVGLFQKKKKKK-NH2 [PonC 2A]”, for which the “λMF, wavelength of peak Trp fluorescence” value in the series with LPS micelles [1] was determined as 346 nm. In the series with LPS micelles [2], the “m (F0/F), Stern-Volmer slope” value turned out to be 5.8.

For the substance H-WLGSALIGALLPSVVGLFQKKKKKK-NH2 [PonC], the “λMF, wavelength of peak Trp fluorescence” value in the series on LPS micelles [1] is 335 nm. The “m (F0/F), Stern-Volmer slope” value in the series on LPS micelles [2] worked out at 3.8.

Take H-KKKKKKWLGSALIGALLPSVVGLFQ-NH2 [PonN]: the “λMF, wavelength of peak Trp fluorescence” value in the series on LPS micelles [1] amounted to 326 nm. Moreover, the “m (F0/F), Stern-Volmer slope” value in the series on LPS micelles [2] is 3.4.

For the substance “H-WAKKAAKIGAKALPSVVKAFKGSGQ-NH2 [PonAmp 4A]”, in the series with LPS micelles [1], the “λMF, wavelength of peak Trp fluorescence” value amounted to 336 nm. Also, in the series on LPS micelles [2], the “m (F0/F), Stern-Volmer slope” value worked out at 3.9.

Take “H-WLGSALKIGAKLLPSVVGLFKKKKQ-NH2 [Ponericin W1, reference compound]”: the “λMF, wavelength of peak Trp fluorescence” value with LPS micelles [1] was 338 nm. Further, in the series with LPS micelles [2], the “m (F0/F), Stern-Volmer slope” value is 5.9.
